Experimental data published in PMC7042354, “Distinct surfaces on Cdc5/PLK Polo-box domain orchestrate combinatorial substrate recognition during cell division” (Scientific Reports, 2020).
Results are given in words; binding and its absence hold for the method and conditions named. Tags and fused reporters may be left off the sequences shown.

Biological target: T1, Cdc5-A567W variant of the polo-box domain (Saccharomyces cerevisiae) (UniProt P32562)
T1 sequence: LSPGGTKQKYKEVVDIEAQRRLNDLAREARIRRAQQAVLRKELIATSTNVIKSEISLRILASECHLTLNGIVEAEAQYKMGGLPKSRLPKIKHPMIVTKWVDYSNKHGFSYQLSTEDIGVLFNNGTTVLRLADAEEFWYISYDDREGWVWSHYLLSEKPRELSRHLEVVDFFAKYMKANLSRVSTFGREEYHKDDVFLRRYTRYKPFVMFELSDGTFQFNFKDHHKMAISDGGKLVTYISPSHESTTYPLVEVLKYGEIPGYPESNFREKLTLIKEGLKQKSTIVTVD
Test: condition: 45 µM protein in the chamber cell and 1.2 mM peptide in the injection syringe; ITC; MicroCal iTC200; 45 µM Cdc5-A567W in the chamber cell, 1.2 mM Dbf4 peptide in the syringe; storage buffer with 20 mM EDTA pH 8.0; both purified

B1: Dbf4-derived peptide (73-96) (peptide)
peptide: EKKRARIERARSIEGAVQVSKGTG
notes: Dbf4, regulatory subunit of the Dbf4-dependent kinase of budding yeast, residues 73-96; Peptide used for ITC and NMR; also called Dbf4 peptide; source: synthetic peptide, bought: GenScript
binding: no binding
